Screening data, single-dose tests

Amino acid sequences for entries named in this document (tags omitted). Residues count along the entry.
UniProt P9WPC5, whole entry: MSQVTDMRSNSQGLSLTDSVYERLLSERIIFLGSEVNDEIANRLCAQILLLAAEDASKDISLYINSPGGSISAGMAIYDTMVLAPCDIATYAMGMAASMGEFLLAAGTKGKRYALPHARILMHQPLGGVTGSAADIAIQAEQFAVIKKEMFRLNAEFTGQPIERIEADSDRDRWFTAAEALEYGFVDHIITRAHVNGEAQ
UniProt P9WPC3, whole entry partner: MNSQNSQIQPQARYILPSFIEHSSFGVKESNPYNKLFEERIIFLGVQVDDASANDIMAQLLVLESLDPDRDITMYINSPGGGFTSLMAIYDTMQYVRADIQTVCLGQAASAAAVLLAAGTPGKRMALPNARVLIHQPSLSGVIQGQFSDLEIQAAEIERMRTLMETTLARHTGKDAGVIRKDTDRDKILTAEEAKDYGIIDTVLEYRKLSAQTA
UniProt Q4DA54, 1-478: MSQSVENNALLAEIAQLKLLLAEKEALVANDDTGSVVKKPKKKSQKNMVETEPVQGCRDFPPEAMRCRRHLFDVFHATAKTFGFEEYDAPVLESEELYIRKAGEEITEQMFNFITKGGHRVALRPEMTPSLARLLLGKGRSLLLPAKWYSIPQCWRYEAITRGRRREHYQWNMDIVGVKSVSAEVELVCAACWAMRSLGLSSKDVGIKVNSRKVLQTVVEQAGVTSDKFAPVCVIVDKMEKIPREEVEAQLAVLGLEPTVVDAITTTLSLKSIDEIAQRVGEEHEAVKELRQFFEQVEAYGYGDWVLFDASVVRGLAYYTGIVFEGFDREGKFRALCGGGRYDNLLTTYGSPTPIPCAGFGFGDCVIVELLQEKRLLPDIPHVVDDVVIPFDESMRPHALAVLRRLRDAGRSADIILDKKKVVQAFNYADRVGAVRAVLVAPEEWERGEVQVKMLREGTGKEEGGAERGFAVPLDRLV
UniProt I6X8D2, whole entry: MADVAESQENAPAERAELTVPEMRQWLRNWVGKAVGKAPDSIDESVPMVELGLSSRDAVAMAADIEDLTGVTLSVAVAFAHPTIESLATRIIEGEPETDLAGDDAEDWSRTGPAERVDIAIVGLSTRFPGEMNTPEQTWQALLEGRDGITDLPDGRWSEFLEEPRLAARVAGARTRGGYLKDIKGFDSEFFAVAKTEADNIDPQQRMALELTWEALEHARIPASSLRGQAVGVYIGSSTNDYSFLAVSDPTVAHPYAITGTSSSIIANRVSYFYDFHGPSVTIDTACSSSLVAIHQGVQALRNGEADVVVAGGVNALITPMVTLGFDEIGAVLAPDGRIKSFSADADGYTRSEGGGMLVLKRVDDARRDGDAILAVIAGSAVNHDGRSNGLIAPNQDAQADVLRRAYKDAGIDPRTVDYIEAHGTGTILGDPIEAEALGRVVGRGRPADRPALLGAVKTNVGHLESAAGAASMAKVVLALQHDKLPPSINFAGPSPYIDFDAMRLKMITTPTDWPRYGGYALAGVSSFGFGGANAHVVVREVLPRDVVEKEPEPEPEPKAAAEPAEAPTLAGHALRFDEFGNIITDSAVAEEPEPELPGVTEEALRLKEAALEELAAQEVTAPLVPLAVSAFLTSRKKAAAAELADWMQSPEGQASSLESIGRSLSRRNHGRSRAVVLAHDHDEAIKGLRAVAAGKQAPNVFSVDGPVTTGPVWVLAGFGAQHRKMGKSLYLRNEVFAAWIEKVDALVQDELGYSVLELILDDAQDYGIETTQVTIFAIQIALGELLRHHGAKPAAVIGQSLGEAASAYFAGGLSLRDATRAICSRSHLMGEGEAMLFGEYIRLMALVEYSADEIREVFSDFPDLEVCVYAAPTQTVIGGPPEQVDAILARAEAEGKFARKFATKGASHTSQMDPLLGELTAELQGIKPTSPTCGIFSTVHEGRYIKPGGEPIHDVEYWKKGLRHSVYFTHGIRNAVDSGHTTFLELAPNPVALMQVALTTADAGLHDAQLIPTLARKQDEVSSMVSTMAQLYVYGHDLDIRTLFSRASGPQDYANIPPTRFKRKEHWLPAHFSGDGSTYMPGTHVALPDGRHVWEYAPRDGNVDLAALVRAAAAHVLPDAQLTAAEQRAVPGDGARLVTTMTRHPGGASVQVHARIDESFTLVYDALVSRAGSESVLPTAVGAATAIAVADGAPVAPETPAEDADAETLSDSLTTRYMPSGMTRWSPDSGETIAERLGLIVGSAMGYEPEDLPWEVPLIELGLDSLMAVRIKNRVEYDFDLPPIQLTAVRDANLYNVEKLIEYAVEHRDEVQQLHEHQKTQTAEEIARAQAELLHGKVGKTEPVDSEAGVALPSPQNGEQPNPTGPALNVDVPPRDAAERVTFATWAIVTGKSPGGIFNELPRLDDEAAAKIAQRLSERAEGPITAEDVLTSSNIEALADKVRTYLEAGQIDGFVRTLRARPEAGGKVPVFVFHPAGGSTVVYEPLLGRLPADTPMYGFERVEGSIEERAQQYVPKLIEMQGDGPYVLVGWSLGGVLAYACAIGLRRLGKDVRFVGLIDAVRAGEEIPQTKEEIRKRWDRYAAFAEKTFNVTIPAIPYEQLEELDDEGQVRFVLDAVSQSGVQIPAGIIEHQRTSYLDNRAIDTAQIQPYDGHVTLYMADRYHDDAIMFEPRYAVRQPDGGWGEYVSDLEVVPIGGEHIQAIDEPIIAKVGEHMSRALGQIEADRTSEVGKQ
UniProt Q8IDJ8, 1-583: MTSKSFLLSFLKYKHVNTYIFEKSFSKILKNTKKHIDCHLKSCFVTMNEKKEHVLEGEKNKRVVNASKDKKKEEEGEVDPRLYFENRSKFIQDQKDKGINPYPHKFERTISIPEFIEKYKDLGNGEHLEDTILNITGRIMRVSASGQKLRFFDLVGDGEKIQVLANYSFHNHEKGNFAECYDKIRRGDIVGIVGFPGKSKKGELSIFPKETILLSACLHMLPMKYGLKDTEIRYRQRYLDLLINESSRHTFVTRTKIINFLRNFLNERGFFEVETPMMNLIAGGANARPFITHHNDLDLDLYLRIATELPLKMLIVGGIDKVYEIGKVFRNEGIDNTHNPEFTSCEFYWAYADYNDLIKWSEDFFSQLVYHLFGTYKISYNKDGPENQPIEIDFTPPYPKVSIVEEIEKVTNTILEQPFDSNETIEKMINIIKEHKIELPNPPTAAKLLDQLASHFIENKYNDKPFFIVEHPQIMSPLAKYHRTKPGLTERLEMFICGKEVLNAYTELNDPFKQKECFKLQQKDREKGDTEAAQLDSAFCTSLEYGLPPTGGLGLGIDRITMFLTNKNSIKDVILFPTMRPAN

A: 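Protease assay of ClpP1P2, read by the AMC dye that it sets free. Target: ClpP1P2, Mycobacterium tuberculosis (UniProt P9WPC5 and UniProt P9WPC3). Concentration: 50 µM. Direction is inferred from only a few compounds that gave an IC50; most scored high, so higher reads as stronger inhibition. Most other retested compounds had strongly negative values. About 69,000 compounds were tested under these conditions; 0.015% (about 10) showed 50% or more at least once.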
B: 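Assay of Toxoplasma gondii numbers, read through their beta-galactosidase reporter with a colour substrate. Compounds at 10 µM. Higher reads as fewer parasites (inferred from which compounds were picked for retests). About 67,000 compounds were tested under these conditions; 0.38% (about 260) showed 50% or more at least once.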
C: 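Histidine-tRNA ligase, Trypanosoma cruzi CL Brener (UniProt Q4DA54). Enzyme assay of histidyl-tRNA synthetase; the read-out is not stated. Concentration: 30 µM. Higher reads as stronger inhibition (inferred: compounds with an IC50 in retests scored well above the rest). Of about 69,000 compounds tested this way, about 31 (0.045%) reached 50% or more in at least one test.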
D: 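Enzyme assay of the thioesterase domain of polyketide synthase 13; the read-out is not stated. Target: Polyketide synthase Pks13, Mycobacterium tuberculosis (UniProt I6X8D2). Tested at 30 µM. The record gives no direction; the compounds picked for IC50 retests had high values, so higher reads as stronger inhibition. Size under these conditions: about 67,000 compounds, about 300 of them at 50% or above in at least one test.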
E: 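Lysine-tRNA ligase, Plasmodium falciparum 3D7 (UniProt Q8IDJ8). Enzyme assay of the cytosolic lysyl-tRNA synthetase in 384-well plates, read by luminescence. Compounds at 30 µM. Direction is inferred from only a few compounds that gave an IC50; most scored high, so higher reads as stronger inhibition. About 69,000 compounds were tested under these conditions; 0.071% (about 49) showed 50% or more at least once.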

Each number is a percent effect as filed.
The controls that fix the scale are not given in the record; negative values are as filed.
The compounds are a random part of those screened.

- O=C(CN1CC(n2cccn2)C1)NCC1(c2ccccc2)CCC1 | A: 13.58%; B: -2.774%; C: 6.383%; D: -11.9%; E: -2.346%
- CC(C)c1nnc(NC(=O)CCc2cc(F)ccc2F)[nH]1 | A: -3.423%; B: 15.73%; C: -0.9804%; D: -13.59%; E: 3.56%
- CC(C)c1cc(C2CCN(Cc3cc(F)cc(F)c3)CC2)[nH]n1 | A: -0.624%; B: 3.164%; C: 7.216%; D: -31.36%; E: -0.8675%
- NC(=O)N1CC[C@@H]2O[C@H](COCC(=O)N3CCCC3)CC[C@@H]21 | A: -11.97%; C: 4.386%; D: 9.98%; E: 2.302%
- Cn1cc(C(=O)NC2CCN(Cc3ccn(C)c(=O)c3)CC2)cn1 | A: -1.299%; B: 1.88%; C: 3.817%; D: 3.487%; E: 0.8205%
- CS(=O)(=O)N1CCCC12CCN(Cc1nccs1)C2.O=C(O)C(F)(F)F (stereo not given) | B: 17.39%
- COc1c(CNCc2cccnc2N2CCOCC2)c(C)nn1C | A: 22.45%; B: 7.909%; C: 9.045%; D: 1.438%; E: 0.8146%
- O=C(O)C(F)(F)F.[H][C@]12CCC[C@@]1(COCc1csc(C)n1)CN(Cc1nccs1)C2 | B: 2.884%
- CS(=O)(=O)CCN1C[C@H](NC(=O)c2cnc(O)cn2)[C@@H](C2CC2)C1 | A: -11.42%; B: -0.9831%; C: -0.5952%; D: -2.056%; E: -2.501%
- CS(=O)(=O)N1CC[C@@H]2OC(COCC(=O)N3CCCC3)CC[C@@H]21 (stereo not given in full) | A: -5.543%; C: 2.632%; D: 13.77%; E: 3.364%
- CN(Cc1cc2n(n1)CCCNC2)Cc1ccno1 | A: -3.299%; B: 6.257%; C: 5.732%; D: -28.64%; E: 3.25%
- O=C(c1ccnnc1)N1CCC2(CC1)CN(c1ccccn1)CCO2 | A: 3.019%; B: -1.588%; C: 2.521%; D: -11.02%; E: 2.146%
- Cc1ccc(SC2CCCC2)c(C(=O)NCc2n[nH]c(=O)[nH]2)c1 | A: -13.68%; B: 6.527%; C: 2.924%; D: -28.66%; E: 4.34%
- CN(C)CCOCc1cncc2c1CCN(C1CCOCC1)C2.O=C(O)C(F)(F)F.O=C(O)C(F)(F)F.O=C(O)C(F)(F)F | B: -6.022%
- CC1CN(CC(=O)NC2CCOCC2)CCN1Cc1nccn1C (stereo not given) | A: -18.35%; B: 16.78%; C: 7.872%; D: -10.29%; E: 0.0327%
- Cn1cc(CN2CCC3(CCC(C(=O)NCC4CC4)C3)CC2)cn1.O=C(O)C(F)(F)F (stereo not given) | B: -4.619%
- COC(=O)CCN1CCC(C(=O)c2cc(F)ccc2F)CC1 | A: -20.18%; B: -4.311%; C: 0%; E: 0.5302%
- OC1CCN(c2ccnc(NCCc3ccccc3Cl)n2)CC1 | A: 0.1728%; B: -8.745%; C: 2.439%; D: -4.656%; E: -3.26%
- Cc1cc(C(=O)N2CCCN(Cc3nccn3C(C)C)CC2)no1 | A: -48.96%; B: -4.695%; C: 6.745%; D: -13.43%; E: 0.5555%
- CCc1ccc2nc(C)cc(C(=O)N3C[C@H]4CCC[C@@]4(CO)C3)c2c1 | A: -14.68%; C: 3.922%; E: 2.297%
- Cc1cc(C(=O)Nc2cnn(CC(F)(F)F)c2)nc(N(C)C)n1 | A: -3.156%; B: 54.34%; C: 2.609%; D: -1.636%; E: 4.56%
- COCC(=O)N1CCCC1c1cc(Nc2nnc(C)s2)nc(C)n1 (stereo not given) | A: -0.8389%; B: -5.158%; C: -1.639%; D: -7.49%; E: -3.801%
- Cn1ncc(CN2CCc3onc(-c4cccc(F)c4)c3C2)c1C1CC1 | A: -5.676%; B: -6.922%; C: 12%; D: -32.55%; E: 6.114%
- CN(CCC(F)(F)F)C(=O)c1nc(S(C)(=O)=O)n2ccccc12 | A: -5.443%; B: 15.1%; C: 2.053%; D: -22.99%; E: -1.479%
- Cc1ncsc1C(=O)N1CCC(O)(Cn2c(C)cc3ccncc32)CC1 | A: -21.94%; B: -8.744%; C: 8.046%; D: 1.523%; E: -0.03504%

Some entries from above, unchanged:

{"smiles": "CC(C)c1cc(C2CCN(Cc3cc(F)cc(F)c3)CC2)[nH]n1", "A": -0.624, "B": 3.164, "C": 7.216, "D": -31.36, "E": -0.8675}
{"smiles": "CC1CN(CC(=O)NC2CCOCC2)CCN1Cc1nccn1C", "stereo": "stereo not given", "A": -18.35, "B": 16.78, "C": 7.872, "D": -10.29, "E": 0.0327}

The values are deposited in ChEMBL (CHEMBL3988442, “University of Dundee, Small-Polar-MMV Screening Library” (2021)).